In PubChem BioAssay AID493014 (National Center for Advancing Translational Sciences (NCATS), 2011):
Hit rate of the full screen: of about 340,000 compounds, about 170 (0.05%) were called active. Inconclusive means that the source gave no clear call. Such entries were picked first, then a sample of the others. The call rests on the fitted dose curve; in most records, active means well fitted inhibition curve with a large enough effect in the signal ratio, with a control signal flat (not every such curve was filed as active); inconclusive means small, poorly fitted or top-dose-only effect, or effect the other way, or a change in a side signal; inactive means flat fitted curve, though single readings scatter; the % refers to the signal ratio. A potency beside an inconclusive call is a rough fit, not a confirmed value.

test: qHTS Assay to Find Inhibitors of Chronic Active B-Cell Receptor Signaling; conditions: ABC-DLBCL IkBa-CBG/CBR reporter, luminescence ratio (green luciferase fused to IkBa over red control in TMD8 lymphoma cells), 4 h; activity change, negative = inhibition: at 46.1 µM (top of the series);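 on activity change, negative = inhibition: plate controls were basal doxycycline-induced cells for no effect and cells given 10 µM MG132 for full effect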
Summary of the method: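 TMD8 ABC-DLBCL cells carrying doxycycline-inducible green luciferase fused to IkappaBalpha plus unfused red luciferase were exposed to compounds (up to 46 uM) for 4 hrs at 37C. Activity came from the overlap-corrected green/red luminescence ratio.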
Potency means the concentration at half of the fitted maximal effect.

| SMILES | activity change, negative = inhibition | Potency |
| --- | --- | --- |
| COc1ccc(C)cc1N(CC(=O)N1CCCCCC1)S(=O)(=O)c1ccccc1 | inactive | – |
| COc1ccc(Cl)cc1C(=O)NCC(c1ccco1)N1CCCC1 (stereo unspecified) | inactive | – |
| CCCCC(=O)Nc1ccc2oc(-c3ccncc3)nc2c1 | inconclusive: 6.57% | – |
| CN(C(=O)C1CCCN1S(=O)(=O)c1ccc(Cl)cc1)c1ccccc1 (stereo unspecified) | inconclusive: -0.853% | – |
| COc1ccc(OC)c(-n2c(-c3cc(-c4ccc(F)cc4)n[nH]3)n[nH]c2=S)c1 | – | inconclusive: 22.4 µM [falling, single point] |
| O=C(Nc1ccc(Oc2ccccc2)nc1)C1CCN(Cc2cccc(F)c2)CC1 | inconclusive: -15.7% | – |
| COc1ccccc1CNC(=O)CCS(=O)(=O)c1ccc(Cl)cc1 | inactive | – |
| COCC(=O)Nc1cc(OC)c(Cl)cc1OC | – | inconclusive: 4.61 µM [rising, partial curve, poor fit] |
| CCOC(=O)c1cc(-c2ccc(OC)cc2)n(CCC(=O)NC2CCC(C)CC2)c1C (stereo unspecified) | inactive | – |
| COC(=O)c1ccc(C(=O)Nc2ccc3c(c2)C(=O)NC3=O)cc1 | inconclusive: -16.9% | – |
| COc1cccc(C2CC(c3cccs3)=NN2C(=O)c2ccco2)c1O (stereo unspecified) | inconclusive: -15.5% | – |
| O=C(O)c1cc(-c2c[nH]c3ccccc23)nc2cc3ccccc3cc12 | – | inconclusive: 11.2 µM [falling, partial curve] |
| COc1ccc(-n2c(COc3cccc(C)c3)nnc2SCC(=O)NCc2ccco2)cc1 | inconclusive: -12.3% | – |
| CCCCCOc1ccc(CSCCNC(=S)Nc2ccccc2)cc1 | inconclusive: 14.9% | – |
| O=C(N=Nc1c(O)[nH]c2ccccc12)c1cc(-c2cccs2)[nH]n1 | – | inconclusive: 3.98 µM [falling, partial curve, poor fit] |
| COc1ccc(NC(=O)CN(C)C(=O)c2ccccc2OC)cc1 | inconclusive: -0.291% | – |
| CCCn1c(SCC(=O)Nc2cccc(C)n2)nnc1-c1ccco1 | inconclusive: -0.0757% | – |
| CCOc1ccc(NC(=O)C(C)SC(N)=O)cc1 (stereo unspecified) | inconclusive: -6.73% | – |
| Cc1cc(C)nc(NC(=NCCc2c[nH]c3ccccc23)NC(=O)Nc2ccc(Cl)c(Cl)c2)n1 | inactive | – |
| O=c1[nH]c(SCc2nc3c(cnn3-c3ccccc3)c(=O)[nH]2)nc2ccccc12 | inconclusive: 9.2% | – |
| O=C(/C(C=Nc1cccc(C(F)(F)F)c1)=C(/O)c1ccco1)C(F)(F)F | inconclusive: 14.5% | – |

| SMILES | activity change, negative = inhibition | Potency |
| --- | --- | --- |
| CC(NC(=O)CN1C(=O)NC(C)(c2cccc3ccccc23)C1=O)c1ccccc1 (stereo unspecified) | inconclusive: 11.6% | – |
| COc1ccccc1OCCNC(=O)Nc1cc(F)c(F)cc1Cl | inconclusive: 17.2% | – |
| CCCCSc1nc(C)c(C(C)=O)cc1C#N | inconclusive: -19.7% | – |
| COc1ccc2cc(C(=O)C3CCCN(C(=O)c4cc5nc(C)cc(C)n5n4)C3)ccc2c1 (stereo unspecified) | inactive | – |
| CC1=NN(C(=O)c2cccnc2)C(O)(C(F)(F)F)C1 (stereo unspecified) | inconclusive: -28.3% | – |
| CC1(c2nnc(-c3ccc(F)cc3)o2)CC(c2cccc(Cl)c2)=NO1 (stereo unspecified) | inconclusive: 1.23% | – |
| CN1CCN(C(=S)C(=O)Nc2ccc(Br)cc2)CC1 | inconclusive: 5.86% | – |
| O=C(Nc1nc2ccccc2[nH]1)c1cccs1 | – | inconclusive: 10 µM [falling, partial curve] |
| O=C(COc1ccccc1F)NNC(=O)c1ccc(F)c(S(=O)(=O)N2CCOCC2)c1 | inconclusive: 1.02% | – |
| COc1ccccc1NC(=O)CC1C(=O)Nc2c1c(=O)n(C)c(=O)n2C (stereo unspecified) | – | inconclusive: 2.24 µM [falling, full curve] |
| COc1ccc(CCNC(=O)c2[nH]c(C)c(C(C)=O)c2C)cc1 | inconclusive: 2.7% | – |
| C=CCn1c(=O)c2c(nc3n2CC(C)CN3Cc2ccccc2)n(C)c1=O (stereo unspecified) | inconclusive: 16.1% | – |
| Nc1ccc(C(=O)OC2CCOC2=O)cc1[N+](=O)[O-] (stereo unspecified) | inconclusive: -3.35% | – |
| Cc1ccccc1OCC(O)CN1CCN(CC(O)COc2ccccc2C)C(C)C1 (stereo unspecified) | inconclusive: -9.99% | – |
| CC(=O)[C@@H]1[C@@H](C(=O)c2ccc(C)cc2)[C@]2(C(=O)Nc3ccccc32)[C@H]2C=Cc3cc(F)ccc3N12 | – | inconclusive: 2.24 µM [falling, full curve, poor fit] |
| COc1ccc(-n2nc3c(N4CCCC(C(=O)NCc5ccccc5C)C4)nnc(C)c3c2C)cc1 (stereo unspecified) | – | inconclusive: 20.6 µM [rising, single point] |
| O=C(c1ccc(CS(=O)Cc2ccccc2Cl)o1)N1CCN(C2CCCCC2)CC1 (stereo unspecified) | inconclusive: 0.229% | – |
| Cc1cc(C(=O)Cn2cc(C(F)(F)F)ccc2=O)c(C)n1-c1ccccc1 | – | inconclusive: 16.4 µM [rising, partial curve, poor fit] |
| CC(C)CNC(=O)CC(c1ccccc1)c1c(O)ccc2ccccc12 (stereo unspecified) | inconclusive: -14.2% | – |
| CC(=O)Nc1ccc2nc(-c3ccccc3)cn2c1 | inconclusive: -9.85% | – |
| CC(C)(C)C(=O)Nc1cc(S(=O)(=O)Nc2ccc(Cl)cc2)ccc1O | inactive | – |

| SMILES | activity change, negative = inhibition | Potency |
| --- | --- | --- |
| CCOc1ccc(OCC)c(NC(=O)CCCN2C(=S)NC(C)(C)CC2C)c1 (stereo unspecified) | inactive | – |
| Cc1nc2c(C(=O)N3CCCC3)cnn2c(C)c1Cc1c(F)cccc1Cl | inactive | – |
| CCCS(=O)(=O)NCCc1sc2nc(-c3ccc(Cl)cc3)nn2c1C | inactive | – |
| COc1cc2[nH]c(=S)n(Cc3ccco3)c(=O)c2cc1OC | – | inconclusive: 0.259 µM [rising, full curve, poor fit] |
| CC(C)CN1C(=O)NC(NC(=O)c2cccs2)(C(F)(F)F)C1=O (stereo unspecified) | inconclusive: 6.1% | – |
| CCCOC(=O)C(C)n1cnc2scc(-c3ccc(C)cc3)c2c1=O (stereo unspecified) | inactive | – |
| O=C1NCCN/C1=C\C(=O)c1ccccc1 | – | inconclusive: 6.51 µM [falling, single point] |
| CCCCC(C)(O)C/C=C/[C@H]1[C@H](O)CC(=O)[C@@H]1CCCCCCC(=O)OC (stereo partly specified) | – | inconclusive: 20.6 µM [falling, partial curve] |
| FC(F)(F)c1nnc(-c2ccccc2)nc1Oc1ccc(Cl)cc1Cl | inconclusive: -14.8% | – |
| O=C(CN1C(=O)C2CC=CCC2C1=O)Nc1nc2ccccc2s1 (stereo unspecified) | inconclusive: 24.6% | – |
| O=[N+]([O-])c1ccc(OCc2cnc(Cl)s2)c([N+](=O)[O-])c1 | inconclusive: 8.53% | – |
| Cc1ccccc1N1C(=O)CC(c2c[nH]c3ccccc23)C1=O (stereo unspecified) | – | inconclusive: 1 µM [falling, partial curve, poor fit] |
| Cc1nc2ccccc2c2oc(C(=O)NCc3ccc4c(c3)OCO4)cc12 | inconclusive: 3.72% | – |
| CC(CNC(=O)C(C)(C)C)NC(=O)C(C)(C)C (stereo unspecified) | inconclusive: 8.58% | – |
| COc1ccc(-n2cc(-c3ccccc3)nc2SC)cc1 | inconclusive: 18.2% | – |
| Cc1ccc(CNC(=O)CSc2nc3ccsc3c(=O)n2Cc2ccccn2)cc1 | inactive | – |
| COC(=O)C(NNc1ccccc1)(NC(=O)c1ccc(F)cc1)C(F)(F)F (stereo unspecified) | inconclusive: 7.25% | – |
| COc1cccc(NC(=O)CN2C(=O)COc3ccc(S(=O)(=O)N4CCOCC4)cc32)c1 | inactive | – |
| Cc1ccc(NC(=S)NNC(=S)NC2CCCCC2)cc1 | inactive | – |
| c1ccc(CNc2ccc(CNc3ncn[nH]3)cc2)cc1 | inconclusive: 3.79% | – |
| COc1cc(/C=C2\COC/C(=C\c3cc(OC)c(OC)c(OC)c3)C2=O)cc(OC)c1OC | – | inconclusive: 3.16 µM [falling, full curve, poor fit] |

Record cards (already shown). Order of values: activity change, negative = inhibition	Potency
CCOc1ccc(OCC)c(NC(=O)CCCN2C(=S)NC(C)(C)CC2C)c1 (stereo unspecified) in the list: inactive	–
COc1ccc(-n2cc(-c3ccccc3)nc2SC)cc1 in the list: inconclusive: 18.2%	–
COc1cc(/C=C2\COC/C(=C\c3cc(OC)c(OC)c(OC)c3)C2=O)cc(OC)c1OC in the list: –	inconclusive: 3.16 µM [falling, full curve, poor fit]

More compounds follow.

| SMILES | activity change, negative = inhibition | Potency |
| --- | --- | --- |
| O=C(O)CN1C(=O)/C(=C\c2cc(Br)ccc2OCc2ccc(Cl)cc2)SC1=S | inconclusive: 10.4% | – |
| O=C(NCc1ccccc1)c1cccc(S(=O)(=O)N2CCOCC2)c1 | inconclusive: 5.49% | – |
| O=C(N/N=C/c1cc([N+](=O)[O-])ccc1O)c1cccc(N2CCCC2=O)c1 | inactive | – |
| Cc1ccc(S(=O)(=O)N2[C@@H](c3ccc(Cl)c(Cl)c3)C(C(=O)O)=C[C@H]2C(C)(C)C)cc1 | inactive | – |
| Cc1ccc(C)c(NC(=O)CN(C)C(=O)c2ccc3ncsc3c2)c1 | – | inconclusive: 20.6 µM [falling, partial curve] |
| CC(C)c1ccc(/C=N/NC(=O)c2ccccc2Cl)cc1 | inconclusive: 259% [cytotoxic] | – |
| Nc1ccc(C(=O)OCC(=O)Nc2cc([N+](=O)[O-])ccc2F)cc1 | – | inconclusive: 23.1 µM [falling, single point] |
| Brc1cccc(-c2nnc(SCc3nc4ccccc4[nH]3)o2)c1 | inconclusive: -4.22% | – |
| CCOC(=O)N1CCN(C(=O)c2ccc(N3C(=O)CCC3=O)cc2)CC1 | inconclusive: 4.98% | – |
| O=C(Nc1nnc(-c2ccc3c(c2)CCCC3)o1)C1COc2ccccc2O1 (stereo unspecified) | inconclusive: -3.79% | – |
| Cc1ccc(C)c(C(=O)OCC(=O)Nc2cccc(S(=O)(=O)N3CCCCC3)c2)c1 | – | inconclusive: 16.4 µM [falling, partial curve] |
| COc1ccc(Nc2nnc(SCC(=O)NC3CCS(=O)(=O)C3)s2)cc1 (stereo unspecified) | inconclusive: 2.29% | – |
| O=c1[nH]c(=S)[nH]c2sc3c(c12)CCCCCC3 | inconclusive: 3.13% | – |
| CCN1C(=O)/C(=C/c2ccc(N3CCCC3)cc2)NC1=S | inconclusive: 5.69% | – |
| O=C(CNc1ccccc1C(=O)O)c1ccccc1 | inconclusive: -13.4% | – |
| COc1cccc(Nc2ccc(N3CCCCC3)cc2)c1OC | inconclusive: 5.85% | – |
| COc1ccc(C(NC(C)=O)c2cc(Cl)c3cccnc3c2O)cc1 (stereo unspecified) | inactive | – |
| CCCN(CCC)S(=O)(=O)c1ccc(C(=O)N2CCC(=O)c3ccccc32)cc1 | inconclusive: 1.5% | – |
